# Measured values reported in patent publication US4578245A, “Multilayer analytical element” (Fuji Photo Film Co., Ltd., priority 1982, dated 1986).
# Test: Relative Sensitivity of Analytical Slide (Multilayer Analytical Element)
# Conditions: glucose 100 mg/dl human whole blood vs distilled water; 37° C., 6 min; 500 nm; (C1) = 1.0
row,SMILES,Relative Sensitivity (Slide)
1,Cc1c(N)c(=O)n(-c2cccc(Cl)c2)n1C [(1)],1.4
2,Cn1c(-c2ccccc2)c(N)c(=O)n1-c1ccccc1 [(18)],1.9
3,"Cn1c(-c2ccccc2)c(N)c(=O)n1C [(C2), reference compound]",1.0
4,Cc1c(N)c(=O)n(-c2c(Cl)cc(Cl)cc2Cl)n1C [Compound (6)],1.9
5,"Cc1c(N)c(=O)n(-c2ccccc2)n1C [Compound (C1), 4-amino-2,3-dimethyl-1-phenyl-3-pyrazolin-5-one, reference compound]",1.0
